# Assay results: paper PMC8519022 (Angewandte Chemie (International Ed. in English), 2021)
# Assays:
# [1] = Hydrogen/deuterium exchange by MALDI-TOF-MS (slow-exchanging protons); format: physicochemical; conditions: unexchanged backbone amide protons at 40 s (t1/2>40 s), 10 mM sodium citrate in D2O, pD 4.5, 22°C; for Number of slow-exchanging protons (closed): ring-closed photoform; for Number of slow-exchanging protons (open): ring-open photoform; for Number of slow-exchanging protons: non-photoswitchable reference
# [2] = general procedure: Fmoc solid-phase peptide synthesis; HBTU, HATU, PyBOP
molecule,measurement,setting,value
CC[C@H](C)[C@@H]1NC(=O)[C@@H]2CCCN2C(=O)[C@@H]2CCCN2C(=O)[C@H]([C@@H](C)CC)NC(=O)[C@H](CO)NC(=O)[C@H](CCCCN)NC(=O)[C@H]([C@@H](C)O)NC(=O)[C@@H]2Cc3cn(nn3)CC[C@H](NC1=O)C(=O)N[C@@H](CCCNC(=N)N)C(=O)N1CCC[C@H]1C(=O)c1cc(c(C)s1)C1=C(CCC1)c1cc(sc1C)C(=O)N[C@@H](Cc1ccccc1)C(=O)N2 [Peptide S6i] (F[Pra]TKSIPPI[Aha]R; triazole 2-10; linker N-C via X1),Number of slow-exchanging protons (closed),"[1]; n = 3, listed as S6i open",3.3 ± 0.2
same,Number of slow-exchanging protons (open),"[1]; n = 3, listed as S6i open",3.3 ± 0.1
"PEPTIDE1{[DAE].A.T.K.S.I.P.P.I.A}$PEPTIDE1,PEPTIDE1,1:R1-10:R2$$$V2.0",difficulty met,[2]; cyclisation step,it was obtained with a very low yield at the cyclization step
CC[C@H](C)[C@@H]1NC(=O)[C@@H]2CCCN2C(=O)[C@@H]2CCCN2C(=O)[C@H]([C@@H](C)CC)NC(=O)[C@H](CO)NC(=O)[C@H](CCCCN)NC(=O)[C@H]([C@@H](C)O)NC(=O)[C@@H]2Cc3cn(nn3)CC[C@H](NC1=O)C(=O)N[C@@H](CCCNC(=N)N)C(=O)N[C@@H](CC(C)C)C(=O)N1CCC[C@H]1C(=O)c1cc(c(C)s1)C1=C(CCC1)c1cc(sc1C)C(=O)N[C@@H](C(C)C)C(=O)N[C@@H](Cc1ccccc1)C(=O)N2 [Peptide S11i] (VF[Pra]TKSIPPI[Aha]RL; triazole 3-11; linker N-C via X1),Number of slow-exchanging protons (closed),[1]; n = 3,3.5 ± 0.1
same,Number of slow-exchanging protons (open),[1]; n = 3,3.7 ± 0.2
"CC[C@H](C)[C@@H]1NC(=O)[C@@H]2CCCN2C(=O)[C@@H]2CCCN2C(=O)[C@H]([C@@H](C)CC)NC(=O)[C@H](CO)NC(=O)[C@H](CCCCN)NC(=O)[C@H]([C@@H](C)O)NC(=O)[C@@H]2CSSC[C@H](NC1=O)C(=O)N[C@@H](Cc1ccccc1)C(=O)N1CCC[C@H]1C(=O)N[C@@H](CC(=O)O)C(=O)NCC(=O)N[C@@H](CCCNC(=N)N)C(=O)N2 [SFTI‐1, sunflower trypsin inhibitor‐1, reference compound]",Number of slow-exchanging protons,[1]; n = 3,6.8 ± 0.4
"PEPTIDE1{G.R.C.T.K.S.I.P.P.I.C.F.P.D}$PEPTIDE1,PEPTIDE1,14:R2-1:R1|PEPTIDE1,PEPTIDE1,3:R3-11:R3$$$V2.0",crude HPLC purity,"[2]; whole synthesis, analytical HPLC, scale of the general procedure 0.1 mmol",35%
"CC[C@H](C)[C@@H]1NC(=O)[C@@H]2CCCN2C(=O)[C@@H]2CCCN2C(=O)[C@H]([C@@H](C)CC)NC(=O)[C@H](CO)NC(=O)[C@H](CCCCN)NC(=O)[C@H]([C@@H](C)O)NC(=O)[C@@H]2CSSC[C@H](NC1=O)C(=O)N[C@@H](CCCNC(=N)N)C(=O)N1CCC[C@H]1C(=O)N[C@@H](CC(=O)O)C(=O)NCC(=O)N[C@@H](Cc1ccccc1)C(=O)N2 [SFTI‐1i, reference compound] (cyclo(CRPDGFCTKSIPPI); disulfide 1-7)",Number of slow-exchanging protons,[1]; n = 3,6.8 ± 0.2
CC[C@H](C)[C@@H]1NC(=O)[C@@H]2CCCN2C(=O)[C@@H]2CCCN2C(=O)[C@H]([C@@H](C)CC)NC(=O)[C@H](CO)NC(=O)[C@H](CCCCN)NC(=O)[C@H]([C@@H](C)O)NC(=O)[C@@H]2Cc3cn(nn3)CC[C@H](NC1=O)C(=O)N[C@@H](Cc1ccccc1)C(=O)N1CCC[C@H]1C(=O)c1cc(c(C)s1)C1=C(CCC1)c1cc(sc1C)C(=O)N[C@@H](CCCNC(=N)N)C(=O)N2 [Peptide S6n] (R[Pra]TKSIPPI[Aha]F; triazole 2-10; linker N-C via X1),Number of slow-exchanging protons (closed),[1]; n = 3,2.5 ± 0.1
same,Number of slow-exchanging protons (open),[1]; n = 3,3.4 ± 0.1

# For some of these results: HELM strings list residues between dots; [ac] is acetyl, [am] amide, other brackets name non-standard units. *1 amine or outer side, *2 acyl side, *3 side chain or, on linkers, in order; H or OH if unused. Where a SMILES comes first, the peptide text is derived from it. Bridges are numbered along the chain shown (N, C = ends). Triazole bridges read from a SMILES are 1,4-linked. [ ]: non-standard residue; d: D form. X1 = Cc1sc(C(=O)[C@@H]2CCCN2[*:2])cc1C1=C(c2cc(C(=O)[*:1])sc2C)CCC1; Aha = [N-]=[N+]=NCC[C@H](N)C(=O)O; Pra = C#CC[C@H](N)C(=O)O
